Assay results: PubChem BioAssay AID493014 (National Center for Advancing Translational Sciences (NCATS), 2011)
This is one part of the list. Further columns of the screen follow, without active or inactive calls. Compounds called inactive in the main read-out are mostly missing here. Words in brackets tell the shape of the fitted curve; partial curves, single points and poor fits give uncertain potencies.

Assay: qHTS Assay to Find Inhibitors of Chronic Active B-Cell Receptor Signaling
Conditions: ABC-DLBCL IkBa-CBG/CBR reporter, luminescence ratio (green luciferase fused to IkBa over red control in TMD8 lymphoma cells), 4 h
Procedure, shortened: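 Concentration-response series (up to 46 uM) were applied to TMD8 dual-reporter cells for 4 h at 37C with doxycycline. Green/red ratio, after filter-overlap correction, defined %Activity; red signal alone was normalised to basal cells and zero luminescence.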

[1] = measured here: CBR red luminescence, cell number
[2] = measured here: IkBa-CBG green luminescence

SMILES | AC50 [1] | AC50 [2]
COc1ccc([C@H]2CC(=O)C=C(c3cccc4c3Oc3ccccc3S4)C2)cc1OC | 23.1 µM [falling, single point] | 7.31 µM [rising, partial curve, poor fit]
CCOC(=O)CNC(=O)c1ccc(OCC(F)(F)F)cc1 | 0.631 µM [falling, partial curve, poor fit] | –
O=C(Nc1ccc2nc(-c3ccccc3)[nH]c2c1)c1cccs1 | 23.1 µM [falling, partial curve, poor fit] | –
COC(=O)c1cc(OC)c(OC)cc1NC(=O)c1ccc(OC)cc1 | 3.98 µM [rising, partial curve, poor fit] | –
Nc1nc(SCC(=O)N2CCCc3ccccc32)n(-c2ccccc2)n1 | 32.6 µM [falling, single point] | –
COc1ccc(NC(=S)Nc2ccccc2)cc1 | 2.82 µM [rising, partial curve] | –
Nc1cc(N2CCCCC2)c([N+](=O)[O-])cc1Cl | 4.11 µM [rising, full curve] | –
O=C(CSCc1c(Cl)cccc1Cl)Nc1ccc2c(c1)OCCO2 | 18.4 µM [falling, single point] | –
OC(c1ccccc1)(c1ccc(F)cc1)C(c1ccccc1)N1CCOCC1 (stereo not drawn) | – | 28.2 µM [rising, partial curve, poor fit]
CNc1sc(C(=O)c2ccccc2F)c(N)c1-c1nc2ccccc2s1 | – | 25.9 µM [falling, single point]
COc1cc(N=Nc2c(C)n(C)n(-c3ccccc3)c2=O)ccc1N | 11.2 µM [falling, partial curve] | –
N#CC1=C(N)N2C(=C(C#N)C1c1ccccc1)Sc1ccccc12 (stereo not drawn) | 0.58 µM [rising, full curve, poor fit] | –
CC1CCCC(C)N1CC(O)COCc1ccccc1F (stereo not drawn) | 35.5 µM [rising, partial curve, poor fit] | –
CC(C)c1ccc(NC(=O)c2sccc2-n2cccc2)cc1 | 12.6 µM [rising, partial curve] | –
CCCc1nnc(NC(=O)C(CC)OC(=O)c2cc(C)nc3ccccc23)s1 (stereo not drawn) | 35.5 µM [falling, single point] | –
Cc1nn(-c2ncc(C(F)(F)F)cc2Cl)c(=O)n1-c1c(F)cccc1F | 3.98 µM [rising, single point] | –
CC(C)(C)OC(=O)CNC(=O)c1[nH]cnc1C(=O)NCCCCCNC(=O)OC(C)(C)C | 35.5 µM [falling, single point] | –
CC(C)CCn1c(SCc2cccc(F)c2)nc2ccsc2c1=O | 35.5 µM [rising, single point] | –
Cc1nc(SCc2ccc(Cl)cc2)ncc1C(=O)O | 7.08 µM [falling, partial curve] | –
COc1cccc(NC(=O)CN2C(=O)COc3ccc(S(=O)(=O)N4CCC(C)CC4)cc32)c1 | 25.1 µM [falling, single point] | –
Cc1ccccc1OCCNC(=O)/C=C/c1ccccc1 | 29.1 µM [rising, single point] | –

Among those listed so far, three have an aryl thioether with sulfur outside any ring.
SMILES | AC50 [1] | AC50 [2]
Nc1nc(SCC(=O)N2CCCc3ccccc32)n(-c2ccccc2)n1 | 32.6 µM [falling, single point] | –
CC(C)CCn1c(SCc2cccc(F)c2)nc2ccsc2c1=O | 35.5 µM [rising, single point] | –
Cc1nc(SCc2ccc(Cl)cc2)ncc1C(=O)O | 7.08 µM [falling, partial curve] | –

Following part

SMILES | AC50 [1] | AC50 [2]
COc1ccc(C(=O)NC(=S)Nc2ccccc2N2CCOCC2)cc1[N+](=O)[O-] | 0.058 µM [rising, full curve, poor fit] | –
Cc1ccc(N2CC(C(=O)NCc3ccco3)CC2=O)cc1Cl (stereo not drawn) | 5.62 µM [falling, partial curve] | –
CCOC(=O)c1ccc(NC(=O)N2CCN(Cc3ccccc3)CC2)cc1 | 0.282 µM [rising, partial curve, poor fit] | –
COc1ccccc1CN(C)C(=O)C(c1ccccc1)c1ccccc1 | 15.8 µM [falling, single point] | –
O=C(CCl)N(c1ccccc1)C1CCS(=O)(=O)C1 (stereo not drawn) | 29.1 µM [falling, single point] | –
COC(=O)c1sc(-c2ccc(C(C)(C)C)cc2)cc1NC(=O)c1ccccc1C(=O)O | 11.2 µM [rising, partial curve, poor fit] | –
CC(O)[C@H]1CNC(=S)N1CCc1cccc(F)c1 (stereo partly drawn) | 5.01 µM [rising, single point] | –
COc1ccc2sc3ccccc3c(=O)c2c1OC | 0.316 µM [rising, full curve, poor fit] | –
O=[N+]([O-])c1ccc(Oc2ccc(OCc3ccccc3)cc2)nc1 | 5.62 µM [rising, single point] | –
COc1cccc(C(=O)OCC(=O)Nc2nnc(-c3ccccc3)o2)c1 | 16.4 µM [falling, partial curve] | –
Cc1ccc(Nc2nnc(SCC(=O)Nc3cccc(S(=O)(=O)N4CCCCC4)c3)s2)cc1 | 1.84 µM [falling, full curve, poor fit] | –
COc1ccc(C(=O)Nc2sc3c(c2C(=O)O)CC(C)(C)OC3)cc1 | 23.1 µM [falling, single point] | –
COc1ccc(C(=S)N2CCCC2)cc1Br | 35.5 µM [rising, single point] | –
Cc1cccc(NC(=O)c2cc3c(s2)-c2c(C)cccc2OC3)n1 | 0.141 µM [falling, full curve, poor fit] | –
CC(C(=O)Nc1ccc(Cl)cc1)N(C)Cc1cccs1 (stereo not drawn) | 2.82 µM [rising, full curve, poor fit] | –
C=CCn1c(SCC(=O)N2CCCC2)nc2c([nH]c3ccccc32)c1=O | 0.178 µM [falling, full curve, poor fit] | –
N#Cc1c(-c2ccc(Cl)cc2)c2c([nH]c1=S)CCCC2 | 6.31 µM [rising, single point] | –
CCCn1c(=O)c2c(nc3n2CCCN3CCc2ccc(OC)c(OC)c2)n(C)c1=O | 7.08 µM [falling, partial curve] | –
CC(/C=N/NC(=O)c1nn(C)c(C)c1Br)=C\c1ccccc1 | 0.731 µM [rising, full curve] | –
O=C(COc1ccc(Br)cc1)Nc1ccncc1 | 6.51 µM [falling, single point] | –
CCN(CC(=O)NCc1ccc(Cl)cc1)C(=O)c1cnc(Cl)c(Cl)c1 | 35.5 µM [falling, partial curve, poor fit] | –
